Laboratory results: PubChem BioAssay AID1259308 (NCATS, 2017)
Assay: 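Knock-downs that increase output of a recombinant reporter protein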 (primary screen). Cells: human HEK293 embryonic kidney cells stably expressing firefly luciferase (HEK-CMV-Luc2-Hygro). Reagents: single siRNA against human genes, 0.8 pmol siRNA per well. Timing: 72 h. Read-out: 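Reporter luminescence and viable-cell signal on separate replicate plates, given as percent of non-targeting control and median/MAD z-scores, plus per-cell luciferase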. Direction: total luciferase, z-score: higher = more reporter protein produced. Hit rule: 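Active when the median/MAD z-score for overall luciferase is greater than 3; a gene was taken forward for validation with new siRNAs if at least two of its three siRNAs passed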. Calls: active = raised luciferase; inactive = no rise.
Here is a random part of about 59,000 deposited reagents. In the full data, about 1,510 (2.6%) got an active call. 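Calls use total luciferase alone and ignore viability, so some active siRNAs may act by altering cell number.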 Reagents against one gene are numbered here. Further read-outs or replicates are left out here.

gene knocked down	reagent no.	total luciferase, z-score	outcome
RASSF10 (Ras association domain family member 10)	1	0.708	inactive
RASSF10 (Ras association domain family member 10)	2	-0.623	inactive
RASSF10 (Ras association domain family member 10)	3	-0.705	inactive
PHAF1 (phagophore assembly factor 1)	1	1.19	inactive
PHAF1 (phagophore assembly factor 1)	2	-0.416	inactive
PHAF1 (phagophore assembly factor 1)	3	-0.301	inactive
PJA2 (praja ring finger ubiquitin ligase 2)	1	0.992	inactive
PJA2 (praja ring finger ubiquitin ligase 2)	2	0.0368	inactive
PJA2 (praja ring finger ubiquitin ligase 2)	3	-0.214	inactive
SMC2 (structural maintenance of chromosomes 2)	1	-0.0601	inactive
SMC2 (structural maintenance of chromosomes 2)	2	0.185	inactive
SMC2 (structural maintenance of chromosomes 2)	3	-0.603	inactive

Entries above whose target name begins with P or p:
gene knocked down	reagent no.	total luciferase, z-score	outcome
PHAF1 (phagophore assembly factor 1)	1	1.19	inactive
PHAF1 (phagophore assembly factor 1)	2	-0.416	inactive
PHAF1 (phagophore assembly factor 1)	3	-0.301	inactive
PJA2 (praja ring finger ubiquitin ligase 2)	1	0.992	inactive
PJA2 (praja ring finger ubiquitin ligase 2)	2	0.0368	inactive
PJA2 (praja ring finger ubiquitin ligase 2)	3	-0.214	inactive

Next records follow:
gene knocked down	reagent no.	total luciferase, z-score	outcome
LINC02903 (long independently transcribed non-coding RNA 2903)	1	2	inactive
LINC02903 (long independently transcribed non-coding RNA 2903)	2	-0.196	inactive
LINC02903 (long independently transcribed non-coding RNA 2903)	3	-2.11	inactive
FKBP7 (FKBP prolyl isomerase 7)	1	-0.534	inactive
FKBP7 (FKBP prolyl isomerase 7)	2	2.98	inactive
FKBP7 (FKBP prolyl isomerase 7)	3	0.234	inactive
MDP1 (magnesium dependent phosphatase 1)	1	0.869	inactive
MDP1 (magnesium dependent phosphatase 1)	2	0.509	inactive
MDP1 (magnesium dependent phosphatase 1)	3	4.08	active
DHX40 (DEAH-box helicase 40)	1	5.52	active
DHX40 (DEAH-box helicase 40)	2	0.2	inactive
DHX40 (DEAH-box helicase 40)	3	0.363	inactive
